Binding data for one molecule are collected here from publication PMC11298252.

Protein sequences, listed by entry. Tags and fused reporters are not part of them.
UniProt O15260: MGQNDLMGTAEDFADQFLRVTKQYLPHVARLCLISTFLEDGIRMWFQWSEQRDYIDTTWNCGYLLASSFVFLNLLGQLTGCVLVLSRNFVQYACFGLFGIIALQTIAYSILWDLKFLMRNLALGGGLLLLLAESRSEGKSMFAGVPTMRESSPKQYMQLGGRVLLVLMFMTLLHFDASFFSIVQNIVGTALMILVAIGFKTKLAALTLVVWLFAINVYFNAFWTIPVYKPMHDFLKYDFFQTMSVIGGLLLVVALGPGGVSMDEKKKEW

These are yes or no findings as the source states them, for the method shown. In cells and extracts the contact can be indirect. Some results given as binding are weak or reduced against the parent protein; the word gives no strength. Sequences can lack the tags named with a protein.

This experiment addresses Myc-DDK-tagged Surf4 (UniProt O15260). The experiment is described as follows: co-IP; HepG2 cells co-transfected with HA-SAA1 and Myc-DDK-Surf4, treated with sodium azide and D-glucose, cross-linked with a membrane-permeable reversible crosslinker; RIPA lysate applied to anti-Myc antibody-conjugated beads; immunoblotting. Background: Immunoblotting shows a protein as a band on a membrane.

B1: HA-tagged serum amyloid A1 (SAA1) (protein, UniProt P0DJI8 19-122)
chain: RSFFSFLGEAFDGARDMWRAYSDMREANYIGSDKYFHARGNYDAAKRGPGGAWAAEVITDARENIQRFFGHGAEDSLADQAANEWGRSGKDPNHFRPAGLPEKY
For the molecule B1, the binding result was “binds”.
